# Test results reported in the supplement of paper PMC12819154, “High-throughput peptide-centric local stability assay extends protein–ligand identification to membrane proteins, tissues and bacteria” (Nature Structural & Molecular Biology, 2025).
# The chains behind the UniProt entries cited, without tags or fusion partners. Where a name states a change or a piece, a line headed by the entry shows the natural chain unless it says otherwise.
# UniProt P0CW24: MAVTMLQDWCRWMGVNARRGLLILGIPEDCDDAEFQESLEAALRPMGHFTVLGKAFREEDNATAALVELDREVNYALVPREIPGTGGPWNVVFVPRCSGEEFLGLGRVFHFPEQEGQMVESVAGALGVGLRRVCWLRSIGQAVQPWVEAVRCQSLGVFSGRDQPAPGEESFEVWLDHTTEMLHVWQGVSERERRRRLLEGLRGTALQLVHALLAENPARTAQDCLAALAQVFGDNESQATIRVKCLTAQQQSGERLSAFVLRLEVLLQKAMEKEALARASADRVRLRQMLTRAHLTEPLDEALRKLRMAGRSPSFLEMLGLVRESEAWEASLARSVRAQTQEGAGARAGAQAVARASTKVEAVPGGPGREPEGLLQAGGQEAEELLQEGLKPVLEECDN
# UniProt P10646, whole entry: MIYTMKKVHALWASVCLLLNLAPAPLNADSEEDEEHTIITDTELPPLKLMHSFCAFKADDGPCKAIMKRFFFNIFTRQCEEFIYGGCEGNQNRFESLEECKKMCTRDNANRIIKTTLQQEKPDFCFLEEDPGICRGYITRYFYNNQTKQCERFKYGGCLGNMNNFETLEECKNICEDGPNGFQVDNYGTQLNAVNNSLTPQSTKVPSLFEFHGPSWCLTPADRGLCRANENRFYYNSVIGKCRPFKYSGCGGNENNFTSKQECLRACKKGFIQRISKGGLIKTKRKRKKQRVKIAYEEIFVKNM
# UniProt P12081: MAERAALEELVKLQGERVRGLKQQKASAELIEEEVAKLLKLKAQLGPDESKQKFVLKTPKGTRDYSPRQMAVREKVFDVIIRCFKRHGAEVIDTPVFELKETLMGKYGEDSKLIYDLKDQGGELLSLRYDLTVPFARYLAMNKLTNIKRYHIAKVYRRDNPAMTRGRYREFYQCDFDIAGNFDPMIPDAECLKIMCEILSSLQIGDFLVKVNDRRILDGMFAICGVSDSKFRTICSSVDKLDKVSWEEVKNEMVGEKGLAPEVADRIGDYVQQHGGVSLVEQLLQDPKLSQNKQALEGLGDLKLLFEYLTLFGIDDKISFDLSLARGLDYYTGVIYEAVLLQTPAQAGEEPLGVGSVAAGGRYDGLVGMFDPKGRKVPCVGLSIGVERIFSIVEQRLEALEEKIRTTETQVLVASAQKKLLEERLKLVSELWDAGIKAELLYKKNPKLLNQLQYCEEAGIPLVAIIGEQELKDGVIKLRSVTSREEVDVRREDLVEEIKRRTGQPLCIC
# UniProt P05060: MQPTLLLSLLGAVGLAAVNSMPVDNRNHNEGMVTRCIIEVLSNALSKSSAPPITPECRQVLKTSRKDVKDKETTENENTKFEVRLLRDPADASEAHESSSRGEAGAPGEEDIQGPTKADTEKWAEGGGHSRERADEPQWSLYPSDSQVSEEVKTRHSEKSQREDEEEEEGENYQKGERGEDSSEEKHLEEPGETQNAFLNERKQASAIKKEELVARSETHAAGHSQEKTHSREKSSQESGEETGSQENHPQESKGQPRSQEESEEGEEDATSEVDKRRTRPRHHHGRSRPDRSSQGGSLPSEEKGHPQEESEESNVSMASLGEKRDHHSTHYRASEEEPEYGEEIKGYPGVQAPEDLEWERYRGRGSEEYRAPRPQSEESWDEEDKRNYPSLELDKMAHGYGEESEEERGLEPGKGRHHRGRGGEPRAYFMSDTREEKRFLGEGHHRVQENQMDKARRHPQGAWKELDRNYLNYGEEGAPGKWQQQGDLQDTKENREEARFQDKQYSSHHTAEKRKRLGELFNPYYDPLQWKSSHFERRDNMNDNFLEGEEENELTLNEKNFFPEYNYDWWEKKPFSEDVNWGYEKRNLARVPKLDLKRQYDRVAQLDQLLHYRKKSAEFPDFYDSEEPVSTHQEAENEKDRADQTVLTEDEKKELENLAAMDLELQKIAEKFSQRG
# UniProt P01718, whole entry: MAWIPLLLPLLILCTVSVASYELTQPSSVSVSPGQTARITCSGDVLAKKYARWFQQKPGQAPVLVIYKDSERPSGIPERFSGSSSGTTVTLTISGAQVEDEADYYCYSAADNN
# UniProt P05412, whole entry: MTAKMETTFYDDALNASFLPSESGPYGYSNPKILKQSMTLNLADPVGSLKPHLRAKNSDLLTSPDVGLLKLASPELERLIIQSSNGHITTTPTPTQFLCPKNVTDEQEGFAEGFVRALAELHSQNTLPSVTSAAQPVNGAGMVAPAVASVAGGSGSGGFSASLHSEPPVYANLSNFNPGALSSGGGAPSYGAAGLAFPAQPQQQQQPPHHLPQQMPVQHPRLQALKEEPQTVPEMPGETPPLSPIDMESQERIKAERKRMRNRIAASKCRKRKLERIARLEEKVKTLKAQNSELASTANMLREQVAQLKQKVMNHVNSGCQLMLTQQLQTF
# UniProt P05161, whole entry: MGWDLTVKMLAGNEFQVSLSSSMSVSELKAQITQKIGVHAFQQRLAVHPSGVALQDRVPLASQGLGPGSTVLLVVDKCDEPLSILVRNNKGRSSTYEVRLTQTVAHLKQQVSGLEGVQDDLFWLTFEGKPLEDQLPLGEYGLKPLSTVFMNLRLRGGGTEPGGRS
# UniProt P04150: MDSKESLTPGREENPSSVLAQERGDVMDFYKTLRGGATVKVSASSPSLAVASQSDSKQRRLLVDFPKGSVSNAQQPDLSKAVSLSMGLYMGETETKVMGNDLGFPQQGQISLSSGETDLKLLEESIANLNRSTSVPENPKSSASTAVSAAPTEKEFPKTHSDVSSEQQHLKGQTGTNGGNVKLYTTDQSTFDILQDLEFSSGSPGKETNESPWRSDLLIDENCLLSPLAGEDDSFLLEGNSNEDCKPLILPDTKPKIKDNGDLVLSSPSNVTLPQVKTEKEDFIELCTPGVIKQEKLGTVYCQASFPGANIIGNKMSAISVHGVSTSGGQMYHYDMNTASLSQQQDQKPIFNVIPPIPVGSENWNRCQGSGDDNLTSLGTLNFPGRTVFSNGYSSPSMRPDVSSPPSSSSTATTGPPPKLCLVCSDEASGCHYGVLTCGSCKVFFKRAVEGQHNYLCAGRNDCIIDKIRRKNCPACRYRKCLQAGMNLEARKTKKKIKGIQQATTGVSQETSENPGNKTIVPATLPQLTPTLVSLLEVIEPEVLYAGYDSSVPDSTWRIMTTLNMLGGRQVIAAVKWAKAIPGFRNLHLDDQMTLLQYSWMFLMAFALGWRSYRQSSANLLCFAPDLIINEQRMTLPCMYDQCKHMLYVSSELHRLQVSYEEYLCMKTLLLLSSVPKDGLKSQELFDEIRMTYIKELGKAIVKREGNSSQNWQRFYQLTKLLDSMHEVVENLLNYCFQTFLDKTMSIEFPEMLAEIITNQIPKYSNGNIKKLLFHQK
# UniProt P05141: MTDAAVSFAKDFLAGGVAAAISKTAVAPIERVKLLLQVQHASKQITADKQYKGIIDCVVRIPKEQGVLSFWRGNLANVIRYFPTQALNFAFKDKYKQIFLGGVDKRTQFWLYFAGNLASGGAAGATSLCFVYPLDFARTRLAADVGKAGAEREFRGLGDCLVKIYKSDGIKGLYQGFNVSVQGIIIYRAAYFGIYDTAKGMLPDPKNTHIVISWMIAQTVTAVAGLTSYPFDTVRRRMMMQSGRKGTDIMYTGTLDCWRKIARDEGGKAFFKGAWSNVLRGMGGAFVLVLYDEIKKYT
# UniProt P09017: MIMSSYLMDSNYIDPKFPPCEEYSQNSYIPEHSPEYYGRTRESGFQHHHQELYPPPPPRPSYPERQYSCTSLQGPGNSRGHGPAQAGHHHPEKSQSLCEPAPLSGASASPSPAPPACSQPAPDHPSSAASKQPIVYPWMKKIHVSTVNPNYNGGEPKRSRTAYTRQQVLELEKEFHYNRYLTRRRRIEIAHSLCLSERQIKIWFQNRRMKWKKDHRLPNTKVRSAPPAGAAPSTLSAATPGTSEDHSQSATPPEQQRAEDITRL
# UniProt P14136, whole entry: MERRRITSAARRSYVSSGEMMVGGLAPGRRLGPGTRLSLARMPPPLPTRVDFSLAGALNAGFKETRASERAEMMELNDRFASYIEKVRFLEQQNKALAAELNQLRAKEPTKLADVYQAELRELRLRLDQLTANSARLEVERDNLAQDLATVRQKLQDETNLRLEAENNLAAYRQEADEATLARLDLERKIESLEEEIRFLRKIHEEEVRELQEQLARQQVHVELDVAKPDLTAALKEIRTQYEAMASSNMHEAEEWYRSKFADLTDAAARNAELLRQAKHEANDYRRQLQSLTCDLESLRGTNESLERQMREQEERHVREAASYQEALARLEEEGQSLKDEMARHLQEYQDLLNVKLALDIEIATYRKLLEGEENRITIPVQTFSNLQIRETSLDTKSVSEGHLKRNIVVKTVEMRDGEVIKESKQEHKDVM
# UniProt P04733: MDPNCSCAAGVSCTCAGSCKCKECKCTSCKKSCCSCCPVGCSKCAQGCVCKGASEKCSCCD
# UniProt P07951, whole entry: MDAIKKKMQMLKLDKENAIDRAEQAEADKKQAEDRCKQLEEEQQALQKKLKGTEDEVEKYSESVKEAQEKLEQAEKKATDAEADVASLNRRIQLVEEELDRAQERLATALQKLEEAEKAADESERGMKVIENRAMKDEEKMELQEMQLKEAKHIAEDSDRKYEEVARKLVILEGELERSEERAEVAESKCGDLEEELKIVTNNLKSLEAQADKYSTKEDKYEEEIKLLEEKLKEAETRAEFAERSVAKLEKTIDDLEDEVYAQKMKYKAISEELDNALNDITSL
# UniProt P04054: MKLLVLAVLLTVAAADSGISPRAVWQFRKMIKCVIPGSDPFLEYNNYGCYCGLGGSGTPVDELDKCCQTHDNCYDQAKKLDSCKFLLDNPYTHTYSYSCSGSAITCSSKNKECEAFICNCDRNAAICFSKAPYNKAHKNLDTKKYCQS
# UniProt P0DJD1, whole entry: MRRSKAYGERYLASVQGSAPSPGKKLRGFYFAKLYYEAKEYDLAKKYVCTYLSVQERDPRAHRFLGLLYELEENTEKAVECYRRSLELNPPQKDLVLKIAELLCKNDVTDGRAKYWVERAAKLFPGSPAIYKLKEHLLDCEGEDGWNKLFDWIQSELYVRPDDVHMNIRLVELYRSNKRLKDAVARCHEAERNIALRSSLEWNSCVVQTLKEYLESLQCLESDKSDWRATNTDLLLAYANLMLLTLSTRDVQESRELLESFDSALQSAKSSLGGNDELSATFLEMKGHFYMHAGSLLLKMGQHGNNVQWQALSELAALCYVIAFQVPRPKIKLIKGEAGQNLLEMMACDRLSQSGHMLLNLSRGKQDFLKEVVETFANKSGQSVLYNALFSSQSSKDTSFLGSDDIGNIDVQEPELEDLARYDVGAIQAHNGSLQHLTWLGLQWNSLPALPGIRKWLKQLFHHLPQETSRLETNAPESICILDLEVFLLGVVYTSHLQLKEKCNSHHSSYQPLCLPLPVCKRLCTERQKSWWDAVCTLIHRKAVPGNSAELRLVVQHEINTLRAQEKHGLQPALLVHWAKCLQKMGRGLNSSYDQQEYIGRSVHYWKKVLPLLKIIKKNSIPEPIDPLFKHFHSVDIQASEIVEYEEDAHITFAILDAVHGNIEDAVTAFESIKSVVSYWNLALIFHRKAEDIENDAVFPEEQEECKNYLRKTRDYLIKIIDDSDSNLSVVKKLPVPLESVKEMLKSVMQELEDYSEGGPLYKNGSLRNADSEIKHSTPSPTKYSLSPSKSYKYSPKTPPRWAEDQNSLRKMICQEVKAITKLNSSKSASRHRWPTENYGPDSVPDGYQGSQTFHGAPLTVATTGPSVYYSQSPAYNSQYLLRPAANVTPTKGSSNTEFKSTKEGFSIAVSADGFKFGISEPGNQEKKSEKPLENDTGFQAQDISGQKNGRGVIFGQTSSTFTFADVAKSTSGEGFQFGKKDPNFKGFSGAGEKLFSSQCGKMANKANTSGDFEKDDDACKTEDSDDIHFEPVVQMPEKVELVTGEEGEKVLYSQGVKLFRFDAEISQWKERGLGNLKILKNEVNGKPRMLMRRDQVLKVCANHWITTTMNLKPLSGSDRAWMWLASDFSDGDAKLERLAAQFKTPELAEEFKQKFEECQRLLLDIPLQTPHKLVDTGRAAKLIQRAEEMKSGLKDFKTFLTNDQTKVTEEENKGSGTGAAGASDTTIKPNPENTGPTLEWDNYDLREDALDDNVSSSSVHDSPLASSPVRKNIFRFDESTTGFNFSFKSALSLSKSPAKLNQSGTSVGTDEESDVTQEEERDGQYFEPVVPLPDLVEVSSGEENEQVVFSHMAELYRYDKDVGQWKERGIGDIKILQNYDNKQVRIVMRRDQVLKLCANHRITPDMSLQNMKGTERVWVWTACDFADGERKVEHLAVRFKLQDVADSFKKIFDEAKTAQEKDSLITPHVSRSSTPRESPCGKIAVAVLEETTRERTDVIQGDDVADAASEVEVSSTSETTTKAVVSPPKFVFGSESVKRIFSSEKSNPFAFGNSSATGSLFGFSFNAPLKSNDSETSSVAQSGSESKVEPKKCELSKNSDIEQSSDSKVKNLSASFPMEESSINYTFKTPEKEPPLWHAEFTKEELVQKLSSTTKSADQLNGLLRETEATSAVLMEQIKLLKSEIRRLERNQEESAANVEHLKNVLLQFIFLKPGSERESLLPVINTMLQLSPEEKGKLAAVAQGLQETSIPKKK
# Some of the results follow. Small differences around the control level are noise.
# Compound: Cc1nc(Nc2ncc(C(=O)Nc3c(C)cccc3Cl)s2)cc(N2CCN(CCO)CC2)n1 [dasatinib]
# Test: log2 fold change of tryptic peptide abundance, ligand vs vehicle (limited proteolysis) (log2 ratio); higher = more trypsin-susceptible (destabilized)
# Settings: ligand concentration: 5 uM; sample: K562 cleared lysate
row,Target,log2 fold change
1,"UniProt P0CW24 (peptide sequence: AHLTEPLDEALR, peptide start residue: 293)",-0.684
2,"UniProt P06576 (peptide sequence: VLDSGAPIKIPVGPETLGR, peptide start residue: 125)",-0.11
3,"VIM (peptide sequence: MFGGPGTASRPSSSR, peptide start residue: 14) (UniProt P08670)",0.124
4,"EIF2S1 (peptide sequence: INLIAPPR, peptide start residue: 227) (UniProt P05198)",-0.0789
5,"HBD (peptide sequence: VNVDAVGGEALGR, peptide start residue: 19) (UniProt P02042)",0.0196
6,"LTA4H (peptide sequence: WEDAIPLALK, peptide start residue: 548) (UniProt P09960)",-0.378
7,"TFPI (peptide sequence: IAYEEIFVK, peptide start residue: 294) (UniProt P10646)",-0.0676
8,"HARS (peptide sequence: VFDVIIR, peptide start residue: 76) (UniProt P12081)",-0.269
9,"UBL4A (peptide sequence: RLSDYSIGPNSK, peptide start residue: 55) (UniProt P11441)",0.455
10,"UniProt P05060 (peptide sequence: YRGRGSEEYR, peptide start residue: 362)",-0.0169
11,"UniProt P0C6C1 (peptide sequence: SISDISFPK, peptide start residue: 284)",0.068
12,"ANXA5 (peptide sequence: VLTEIIASR, peptide start residue: 109) (UniProt P08758)",0.182
13,"HMGB1 (peptide sequence: PPSAFFLFCSEYRPK, peptide start residue: 98) (UniProt P09429)",-0.272
14,"UniProt P01718 (peptide sequence: KYARWFQQK, peptide start residue: 49)",0.289
15,"PRG2 (peptide sequence: VVGIPGCQTCR, peptide start residue: 98) (UniProt P13727)",-0.0372
16,"JUN (peptide sequence: QSMTLNLADPVGSLKPHLR, peptide start residue: 36) (UniProt P05412)",-0.0345
17,"MYB (peptide sequence: IIYQAHKR, peptide start residue: 154) (UniProt P10242)",-0.774
18,"QDPR (peptide sequence: NRPSSGSLIQVVTTEGR, peptide start residue: 220) (UniProt P09417)",-0.324

row,Target,log2 fold change
1,"ISG15 (peptide sequence: IGVHAFQQR, peptide start residue: 36) (UniProt P05161)",-0.271
2,"POLB (peptide sequence: AASVIAK, peptide start residue: 42) (UniProt P06746)",-0.462
3,"NR3C1 (peptide sequence: TEKEDFIELCTPGVIK, peptide start residue: 278) (UniProt P04150)",0.29
4,"ASL (peptide sequence: CAGLLMTLK, peptide start residue: 307) (UniProt P04424)",0.166
5,"LAMB1 (peptide sequence: CGGPGCGGLVTVAHNAWQK, peptide start residue: 1425) (UniProt P07942)",0.213
6,"SLC25A5 (peptide sequence: GIIDCVVR, peptide start residue: 53) (UniProt P05141)",0.0144
7,"TGFB1 (peptide sequence: AQHLQSSR, peptide start residue: 268) (UniProt P01137)",0.144
8,"FH (peptide sequence: AADEVAEGK, peptide start residue: 123) (UniProt P07954)",-0.0797
9,"UniProt P09017 (peptide sequence: QQVLELEKEFHYNR, peptide start residue: 172)",0.0302
10,"GFAP (peptide sequence: GTNESLER, peptide start residue: 335) (UniProt P14136)",-0.0249
11,"UniProt P04733 (peptide sequence: CAQGCVCK, peptide start residue: 44)",0.0674
12,"UniProt P13682 (peptide sequence: SHTGEKPYECK, peptide start residue: 216)",0.169
13,"PLS3 (peptide sequence: ALENDPDCR, peptide start residue: 133) (UniProt P13797)",0.0502
14,"TPM2 (peptide sequence: EAETRAEFAER, peptide start residue: 198) (UniProt P07951)",-0.133
15,"UniProt P0DMU8 (peptide sequence: ECDSPSYQK, peptide start residue: 21)",0.0929
16,"UniProt P04054 (peptide sequence: NAAICFSK, peptide start residue: 123)",-0.0775
17,"UniProt P0DJD1 (peptide sequence: YLASVQGSAPSPGKK, peptide start residue: 11)",0.4
18,"ERCC1 (peptide sequence: VTECLTTVK, peptide start residue: 235) (UniProt P07992)",0.073

# Look-ups from the list:
# Entry for UniProt P04054 (peptide sequence: NAAICFSK, peptide start residue: 123) under log2 fold change: -0.0775
# Entry for UniProt P13682 (peptide sequence: SHTGEKPYECK, peptide start residue: 216) under log2 fold change: 0.169
# Entry for TPM2 (peptide sequence: EAETRAEFAER, peptide start residue: 198) (UniProt P07951) under log2 fold change: -0.133
